Reference: PMC3136212
For some assays here: A negative result means that nothing was seen under these conditions. For some assays here: The exact form of at least one protein or probe is not confirmed. For some assays here: At least one verdict rests on a figure or table, not on a statement of the authors.

Chains of the proteins cited; added tags and fusions are not shown. A line that says so, or that is headed by a name, gives the form on record, which may keep a tag or linker. Residues count along the entry.
UniProt P27694, 432-595 V435T/W442Q/V465T/V469T/F523S/F567S/I571T: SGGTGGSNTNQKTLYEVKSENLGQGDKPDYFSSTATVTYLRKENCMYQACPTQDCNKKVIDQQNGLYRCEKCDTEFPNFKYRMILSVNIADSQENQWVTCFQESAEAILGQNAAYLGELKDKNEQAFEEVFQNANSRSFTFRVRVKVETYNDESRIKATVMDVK
UniProt P27694, 181-441: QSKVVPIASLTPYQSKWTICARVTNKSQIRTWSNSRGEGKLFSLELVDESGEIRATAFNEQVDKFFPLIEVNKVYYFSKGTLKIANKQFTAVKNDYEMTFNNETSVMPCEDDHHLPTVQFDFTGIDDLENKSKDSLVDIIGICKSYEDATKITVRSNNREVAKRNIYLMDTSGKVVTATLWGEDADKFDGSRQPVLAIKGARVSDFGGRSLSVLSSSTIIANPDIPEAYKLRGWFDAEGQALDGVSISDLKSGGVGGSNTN
RPA (full-length heterotrimer RPA1/RPA2/RPA3) (human), one chain, as listed by the source, chain 3 of 3: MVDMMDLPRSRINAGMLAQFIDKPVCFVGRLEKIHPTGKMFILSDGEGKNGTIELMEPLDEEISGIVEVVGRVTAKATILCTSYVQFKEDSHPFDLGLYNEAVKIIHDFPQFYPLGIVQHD
RPA (full-length heterotrimer RPA1/RPA2/RPA3) (human), one chain, as listed by the source, chain 2 of 3: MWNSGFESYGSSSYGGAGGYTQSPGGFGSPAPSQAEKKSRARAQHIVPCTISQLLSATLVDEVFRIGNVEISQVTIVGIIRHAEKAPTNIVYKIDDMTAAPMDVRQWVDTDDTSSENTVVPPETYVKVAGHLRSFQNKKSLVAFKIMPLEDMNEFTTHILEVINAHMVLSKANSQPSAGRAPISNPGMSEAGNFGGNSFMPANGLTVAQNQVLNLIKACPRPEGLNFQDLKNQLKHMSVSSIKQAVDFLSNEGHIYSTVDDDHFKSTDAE
RPA (full-length heterotrimer RPA1/RPA2/RPA3) (human), one chain, as listed by the source, chain 1 of 3: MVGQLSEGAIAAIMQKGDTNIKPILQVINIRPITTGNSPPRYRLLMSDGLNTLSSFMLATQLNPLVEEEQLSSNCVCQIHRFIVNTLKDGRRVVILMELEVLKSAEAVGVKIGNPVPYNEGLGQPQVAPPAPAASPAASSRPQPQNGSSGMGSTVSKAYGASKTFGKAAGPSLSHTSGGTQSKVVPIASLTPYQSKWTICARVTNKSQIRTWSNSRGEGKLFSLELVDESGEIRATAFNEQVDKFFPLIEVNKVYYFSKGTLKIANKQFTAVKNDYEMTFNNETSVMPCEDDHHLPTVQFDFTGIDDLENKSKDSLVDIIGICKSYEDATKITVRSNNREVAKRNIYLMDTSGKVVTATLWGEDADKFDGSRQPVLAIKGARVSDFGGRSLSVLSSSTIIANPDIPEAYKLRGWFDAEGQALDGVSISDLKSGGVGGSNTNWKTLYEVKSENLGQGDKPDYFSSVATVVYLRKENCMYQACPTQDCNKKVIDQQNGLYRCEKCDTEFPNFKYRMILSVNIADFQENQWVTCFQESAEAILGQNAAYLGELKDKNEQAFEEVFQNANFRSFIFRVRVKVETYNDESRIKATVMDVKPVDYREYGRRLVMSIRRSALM
RPA-CDE (human), one chain, as listed by the source, chain 1 of 3: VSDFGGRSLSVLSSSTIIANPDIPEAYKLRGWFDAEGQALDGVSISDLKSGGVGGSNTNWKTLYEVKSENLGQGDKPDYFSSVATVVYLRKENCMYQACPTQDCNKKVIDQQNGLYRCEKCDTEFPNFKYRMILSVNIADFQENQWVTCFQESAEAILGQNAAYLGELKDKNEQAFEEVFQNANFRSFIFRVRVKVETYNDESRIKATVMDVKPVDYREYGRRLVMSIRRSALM
RPA-CDE-core (human), one chain, as listed by the source, chain 1 of 3: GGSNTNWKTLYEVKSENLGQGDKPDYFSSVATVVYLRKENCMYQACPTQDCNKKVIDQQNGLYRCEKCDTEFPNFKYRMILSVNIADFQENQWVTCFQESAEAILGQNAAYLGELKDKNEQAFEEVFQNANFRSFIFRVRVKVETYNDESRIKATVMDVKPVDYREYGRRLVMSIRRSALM
RPA-CDE-core (human), one chain, as listed by the source, chain 2 of 3: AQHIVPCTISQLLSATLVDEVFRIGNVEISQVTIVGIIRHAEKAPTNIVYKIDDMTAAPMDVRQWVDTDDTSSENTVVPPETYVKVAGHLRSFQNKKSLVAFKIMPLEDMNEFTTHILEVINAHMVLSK

How the values were obtained:
[1] = target: RPA-C V435T,W442Q,V465T,V469T,F523S,F567S,I571T (human) (UniProt P27694); assay: FP; conditions: 100 mM NaCl, 18-carbon spacer (sp18) at 5' end, FP: 0.060 uM FAM-oligo, 10-1500 mM NaCl, room temperature, recombinant protein, residues 432-595, protein details: N-terminal His, thrombin-cleaved, label: 5' 6-FAM
[2] = tested on: RPA (full-length heterotrimer RPA1/RPA2/RPA3) (human); assay: FP; conditions: 18-carbon spacer (sp18) at 5' end, FP: 0.060 uM FAM-oligo, 10-1500 mM NaCl, room temperature, recombinant protein, label: 5' 6-FAM, single-stranded DNA
RPA-AB (human) = RPA-AB (human) (UniProt P27694); assay: FP; conditions: 18-carbon spacer (sp18) at 5' end, FP: 0.060 uM FAM-oligo, 10-1500 mM NaCl, room temperature, recombinant protein, residues 181-441, protein details: N-terminal His6, thrombin-cleaved, label: 5' 6-FAM
RPA-CDE-core (human) = assay: FP; conditions: 18-carbon spacer (sp18) at 5' end, FP: 0.060 uM FAM-oligo, 10-1500 mM NaCl, room temperature, recombinant protein, protein details: N-terminal His, thrombin-cleaved, label: 5' 6-FAM
RPA-CDE (human) = assay: CD titration; conditions: remains random coil when bound; CD: Buffer A 25 mM Tris pH 7.5, 2 mM MgCl2, 6% glycerol, 1 mM DTT, 100 (or 10) mM NaCl, room temperature; recombinant protein; single-stranded DNA
RPA-DE (human) = assay: FP; conditions: 100 mM NaCl; 18-carbon spacer (sp18) at 5' end; FP: 0.060 uM FAM-oligo, 10-1500 mM NaCl, room temperature; recombinant protein; protein details: N-terminal His, thrombin-cleaved; label: 5' 6-FAM; folded or branched DNA
[3] = 500 mM NaCl, single-stranded DNA
[4] = 1250 mM NaCl, single-stranded DNA
[5] = 1250 mM NaCl, folded or branched DNA

ATCCCCTTCCCAACCTCACCCAA [Anti (Comp)]
binding result ([1]; single-stranded DNA): no binding

AAAAAAAAAAAAAAAAAAAAAAA [polyA]
binding result ([2]; 1250 mM NaCl): no binding | binding result ([2]; 1500 mM NaCl): no binding | binding result (RPA-AB (human); [3]): no binding | binding result (RPA-AB (human); [4]): no binding | binding result (RPA-AB (human); 1500 mM NaCl, single-stranded DNA): no binding | binding result (RPA-CDE-core (human); [3]): no binding | binding result (RPA-CDE-core (human); [4]): no binding

GTCTTCCTTAATTGTCTTCCTTA [TC23]
binding result (RPA-CDE (human)): binds

TAGGGGAAGGGTTGGAGTGGGTT [Gq23 (FP)]
binding result (RPA-AB (human); [5]): no binding | binding result (RPA-AB (human); 1500 mM NaCl, folded or branched DNA): no binding | binding result ([1]; folded or branched DNA): no binding | binding result (RPA-CDE-core (human); [5]): no binding | binding result (RPA-DE (human)): no binding
